At least one structure is not confirmed: it was looked up by name or label, or the drawing left a doubt.
Tested on: CREB
Assay: Microwell colorimetric DNA-binding assay, CREB (anti phospho-CREB)
Type: cell-based
Details: nuclear extracts of WI-38 VA13 cells stimulated 30 min, 10 μg/ml forskolin, FIG. 2B

For `C=C[C@@]1(C)CC(=O)[C@]2(O)[C@@]3(C)[C@@H](O)CCC(C)(C)[C@@H]3[C@H](O)[C@H](OC(C)=O)[C@@]2(C)O1` [forskolin], the “signal obtained for the assay of P-CREB” value was “strongly induced”.
